{
  "sequences": {"note": "Chains of the proteins cited; added tags and fusions are not shown. A line that says so, or that is headed by a name, gives the form on record, which may keep a tag or linker.", "IFI16 (Homo sapiens), one chain, as listed by the source": "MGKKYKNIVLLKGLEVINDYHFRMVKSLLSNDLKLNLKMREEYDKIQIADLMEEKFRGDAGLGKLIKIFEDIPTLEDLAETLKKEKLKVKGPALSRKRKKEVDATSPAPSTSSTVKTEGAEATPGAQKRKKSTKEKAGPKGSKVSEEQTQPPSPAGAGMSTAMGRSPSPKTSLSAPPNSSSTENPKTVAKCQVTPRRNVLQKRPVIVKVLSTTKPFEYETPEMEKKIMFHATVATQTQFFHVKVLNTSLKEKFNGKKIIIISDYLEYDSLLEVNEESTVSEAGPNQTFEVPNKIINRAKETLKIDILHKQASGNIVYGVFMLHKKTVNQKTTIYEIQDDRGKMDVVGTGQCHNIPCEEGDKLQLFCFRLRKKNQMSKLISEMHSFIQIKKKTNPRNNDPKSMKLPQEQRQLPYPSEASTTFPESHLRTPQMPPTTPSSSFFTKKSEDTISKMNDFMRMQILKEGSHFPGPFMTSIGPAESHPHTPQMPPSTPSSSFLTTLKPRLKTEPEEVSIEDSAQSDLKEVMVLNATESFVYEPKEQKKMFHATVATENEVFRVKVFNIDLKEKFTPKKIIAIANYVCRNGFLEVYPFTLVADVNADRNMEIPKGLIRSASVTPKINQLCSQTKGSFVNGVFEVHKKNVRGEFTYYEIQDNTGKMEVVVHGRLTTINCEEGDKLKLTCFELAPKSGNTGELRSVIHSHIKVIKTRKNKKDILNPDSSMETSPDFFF"},
  "source": "paper PMC4900677",
  "tested_on": "IFI16 (Homo sapiens)",
  "assay": "HDX-MS",
  "details": "PYRIN only, HIN domains unchanged; recombinant protein; protein details: N-terminal 6xHis; label: 3'-FAM (EMSA)",
  "note": "Construct, isoform or probe ends are uncertain for at least one entry. A weaker result is weaker than the reference pair of the same experiment.",
  "data": [
    {"sequence": "TTGGGGCGCTTATGGGGAGGGTGGGGAGGGTGGGGAAGGTGGGGAGGAGACT (double strand) [DS NHEIII]", "values": [
      {"measurement": "binding result", "result": "binds more weakly"}
    ]}
  ]
}
